Some of these results come from one statement about several compounds together.
How the values were obtained:
Pyrenophora teres = experiment: Action against Pyrenophora teres (net blotch), barley leaf segments, preventive; assay type: in vivo; conditions: 60 ppm active ingredient, sprayed before inoculation, assessed 4 dpi
Protocol: Barley leaf segments are placed on agar in multiwell plates (24-well format) and sprayed with test solutions (60 ppm active ingredient). After drying, the leaf disks are inoculated with a spore suspension of the fungus. After appropriate incubation the activity of a compound is assessed 4 dpi (days after inoculation) as preventive fungicidal activity.

[1] = system: Mycosphaerella arachidis (Cercospora arachidicola); experiment: Action against Mycosphaerella arachidis/liquid culture (early leaf spot); assay type: cell-based; conditions: liquid culture (PDB), 200 ppm active ingredient, 24° C., photometrically after 6-7 days
[2] = system: Mycosphaerella graminicola (Septoria tritici); experiment: Action against Mycosphaerella graminicola/liquid culture (Septoria blotch); assay type: cell-based; conditions: liquid culture (PDB), 200 ppm active ingredient, 24° C., photometrically after 4 days
[3] = system: Erysiphe graminis f. sp. hordei; experiment: Action against Erysiphe graminis f. sp. hordei (barley powdery mildew), curative; assay type: in vivo; conditions: barley leaf segments, 60 ppm active ingredient, sprayed 24 h after inoculation, assessed 7 dpi
Puccinia recondita = experiment: Action against Puccinia recondita/wheat/leaf disc preventative (brown rust); assay type: in vivo; conditions: wheat leaf segments, 60 ppm active ingredient, sprayed before inoculation, assessed 8 dpi
[4] = system: Botryotinia fuckeliana (Botrytis cinerea); experiment: Action against Botryotinia fuckeliana/liquid culture (gray mould); assay type: cell-based; conditions: liquid culture, 200 ppm active ingredient, 24° C., photometrically after 3-4 days

| SMILES | inhibition (preventive fungicidal activity) (Pyrenophora teres) [%] | inhibition of growth [1] [%] | inhibition of growth [2] [%] | inhibition (curativ fungicidal activity) [3] [%] | inhibition (preventive fungicidal activity) (Puccinia recondita) [%] | inhibition of growth [4] [%] |
| --- | --- | --- | --- | --- | --- | --- |
| CC(Cc1sc2ccc(Cl)cc2c1Cl)N(O)C(=O)c1cn(C)nc1C(F)F (stereo not shown) [Compound 1.010] | ≥ 80 | 80 | 80 | – | – | – |
| COC(c1sc2ccc(Br)cc2c1Cl)C(C)N(OC)C(=O)c1cn(C)nc1C(F)F (stereo not shown) [Compound 1.016] | ≥ 80 | 80 | 80 | ≥ 80 | ≥ 80 | ≥ 80 |
| CC(Cc1sc2ccc(Br)cc2c1Cl)N(O)C(=O)c1cn(C)nc1C(F)F (stereo not shown) [Compound 1.033] | ≥ 80 | 80 | 80 | – | – | ≥ 80 |
| CON(C(=O)c1c(C)nn(C)c1F)C(C)Cc1sc2cc(Cl)ccc2c1Cl (stereo not shown) [Compound 3.002] | ≥ 80 | 80 | 80 | ≥ 80 | ≥ 80 | ≥ 80 |

— patent publication US8268877B2, “Microbiocides” (Syngenta Crop Protection, LLC, priority 2009, dated 2012)
